B1: il10ra_site1_sap_14_mot_HHH_b1_03314_af2_000000278_0001_42_55_H_._HHH_b1_00918_0001_0000700020_0000001_0_0001 (protein)
chain: SSSSDEEEEELERLLEQLREAFKDGDTQLVYELLERVIKLASELGDQEVLREVMELLRRLFSSSS
B2: il10ra_site1_sap_28_mot_HHH_b1_07932_000000020_0001_21_38_H_._HHH_b1_03595_0001_0000800045_0000001_0_0001 (protein)
chain: SSSNRAARFLAEQALKAVEILLKQGDHELAEHAFENLERLLEQVGDPKLEEILEEIEKLLRSSSS
B3: il10ra_site1_normal_mot_HHH_b2_07579_000000275_0001_1_19_H_._HHH_b2_05702_af2_0001_0000700053_0000002_0 (protein)
chain: SSSSSDELEEIIELIRKAAELAQKGDPRAEEVAEEALELAEELGNEVAAWAIRHLLRDLTSSSSS
B4: il10ra_site1_sap_27_mot_HHH_b2_07144_000000289_0001_1_18_H_._HHH_b2_07112_0001_0000200020_0000001_0_0001 (protein)
chain: SSSSDREEVEELLREAEELLEEGNEEEALRVVLRAVRLAYQTGDPELLRALWRLIEERKRKSSSS
B5: il10ra_site1_normal_mot_HHH_b1_05021_af2_000000167_0001_42_56_H_._HHH_b1_05676_af2_0001_0000100002_0000001_0 (protein)
chain: SSSSDELEEVFRLLERASQLDQEGDHEEARRLLEEARELAEELGNELLRWQIEWLLERLDSSSSS
B6: il10ra_site1_sap_16_mot_HHH_b2_07144_000000289_0001_1_18_H_._HHH_b1_08718_0001_0000100012_0000001_0_0001 (protein)
chain: SSSSDAEFLVRQALKAVRILIERGDPEEAQRALEIAKRLAEQANNEELEELIEEVERQLHSSSSS
B7: il10ra_site1_normal_mot_HHH_b1_03859_af2_000000004_0001_44_57_H_._HHH_b2_03997_0001_0000200016_0000001_0_af2pred_0001 (protein)
chain: SSSSSSDLEKKLELSIRFAKSLSDPEAARLLLRQAADLARRANNEELLEEIERLLEELGSSSSSS
B8: il10ra_site1_sap_17_mot_HHH_b1_06789_af2_000000041_0001_1_20_H_._HHH_b2_03987_af2_0001_0000400007_0000001_0_0001 (protein)
chain: SSSSSDDEEYLEMALRFLEWALREGNEESFRSMARAIKQVAERLGDPEVQKRVEELEEEISSSSS
B9: il10ra_site1_sap_22_mot_HHH_b2_02262_af2_000000007_0001_40_53_H_._HHH_b2_07530_af2_0001_0000100002_0000001_0_0001 (protein)
chain: SSSSDEWFEEVKEILQKVVELEREGNPEEAQEILEEAIEKFEEENNHIAVQQLRFLLKLISSSSS
B10: il10ra_site1_normal_mot_HHH_b2_07521_000000141_0001_20_37_H_._HHH_b1_02532_0001_0000200012_0000001_0_af2pred_dldesign_0_af2pred (protein)
chain: SSSSSNEVEAVRLQLRYARFLREAGAPEEARYVLENALKLAKEVKDPELVAEIEALLAELSSSSS
B11: il10ra_site1_normal_mot_HHH_b2_02337_000000026_0001_38_52_H_._HHH_b1_06806_0001_0000400015_0000001_1 (protein)
chain: SSSSSSSDEEEVRELLEEAEEIENPEELARVLQEATHFALRAQNQELLREVWEVVKRLSSSSSSS
B12: il10ra_site1_sap_22_mot_HHH_b2_07784_af2_000000103_0001_19_36_H_._HHH_b1_05257_af2_0001_0000400005_0000001_0_0001_af2pred_0001 (protein)
chain: SRLEAIARAIRFLAERAGVPHVEVTVENGELHVTVEGNDQAARELKLAARWLARAANVPLEVESE
B13: il10ra_site1_sap_13_mot_HHH_b2_04592_000000276_0001_41_54_H_._2e374b53e75dc1c2421ca5e7055e643f_0001_0001_0000200012_0000001_0_0001 (protein)
chain: SSSSSDDEEYLKLALRFLEWALRVGDEESFKTMARAIKSVAEKLGDPEVQERVEELHEEISSSSS
B14: il10ra_site1_sap_19_mot_HHH_b1_02665_000000293_0001_1_18_H_._HHH_b1_02803_0001_0000500042_0000001_0_0001 (protein)
chain: SSSSSAEEAQEVQRILEEAAELAKRDPEEARRLVEELLEELEELGDRLMIIQIRFLLKDLRSSSS
B15: il10ra_site1_normal_mot_HHH_b1_06789_af2_000000041_0001_1_20_H_._HHH_b2_06015_af2_0001_0000300012_0000001_0_af2pred_dldesign_0_af2pred (protein)
chain: SSSSAGRELTEQAIRAAEILLEAGDLEEAQKALDIAEKLAKQLGDEELLKEIEELKKKLESSSSS
B16: il10ra_site1_sap_18_mot_HHH_b2_07086_af2_000000231_0001_20_36_H_._HHH_b1_05227_af2_0001_0000200009_0000001_0_0001 (protein)
chain: SSSSSEEDQELLELVQEAFHLLLRGDEEEARRLLEEALEIAREAGNERVLRMIESMLKTVSSSSS
B17: il10ra_site1_sap_13_mot_HHH_b1_00267_af2_000000050_0001_38_52_H_._HHH_b1_02387_af2_0001_0000900039_0000001_0_0001 (protein)
chain: SSSSSSDIAELVAEAVRLAIQRNDEEVFRELYELFREYIEKGDPRIEEEVEELLEELRSSSSSSS
B18: il10ra_site1_sap_16_mot_HHH_b2_05343_000000235_0001_19_35_H_._HHH_b2_03259_af2_0001_0000700044_0000001_0_0001 (protein)
chain: SSSSDATEWLVRQALRAVELLAKQGDPEEAEKALELARHLAEAGNDPEAQRLVEELEEELSSSSS

This is one part of the list.

This test deals with il10ra, Q13651. Nature of the test: yeast display titration.
As to B1, the “apparent Kd” value was “inactive: no binding seen”. To B2 belongs “inactive: no binding seen”. With B3, the “apparent Kd” value is “inactive: no binding seen”.

On to B4, for which the “apparent Kd” value was “inactive: no binding seen”. As for B5, the “apparent Kd” value is “inactive: no binding seen”. In the case of B6, the “apparent Kd” value is “inactive: no binding seen”. Take B7: the “apparent Kd” value is “inactive: no binding seen”. Consider B8, for which the “apparent Kd” value was “inactive: no binding seen”. For B9, the “apparent Kd” value was “inactive: no binding seen”. To B10 belongs “inactive: no binding seen”; to B11, “inactive: no binding seen”; to B12, “inactive: no binding seen”. As to B13, the “apparent Kd” value was “inactive: no binding seen”.

For the molecule B14, the “apparent Kd” value was “inactive: no binding seen”. The entry for B15 is “inactive: no binding seen”. The entry for B16 is “inactive: no binding seen”; for B17 it is “inactive: no binding seen”; for B18 it is “inactive: no binding seen”.
